Results from article PMC10565876.

Chains of the proteins cited; added tags and fusions are not shown.
UniProt Q58WW2: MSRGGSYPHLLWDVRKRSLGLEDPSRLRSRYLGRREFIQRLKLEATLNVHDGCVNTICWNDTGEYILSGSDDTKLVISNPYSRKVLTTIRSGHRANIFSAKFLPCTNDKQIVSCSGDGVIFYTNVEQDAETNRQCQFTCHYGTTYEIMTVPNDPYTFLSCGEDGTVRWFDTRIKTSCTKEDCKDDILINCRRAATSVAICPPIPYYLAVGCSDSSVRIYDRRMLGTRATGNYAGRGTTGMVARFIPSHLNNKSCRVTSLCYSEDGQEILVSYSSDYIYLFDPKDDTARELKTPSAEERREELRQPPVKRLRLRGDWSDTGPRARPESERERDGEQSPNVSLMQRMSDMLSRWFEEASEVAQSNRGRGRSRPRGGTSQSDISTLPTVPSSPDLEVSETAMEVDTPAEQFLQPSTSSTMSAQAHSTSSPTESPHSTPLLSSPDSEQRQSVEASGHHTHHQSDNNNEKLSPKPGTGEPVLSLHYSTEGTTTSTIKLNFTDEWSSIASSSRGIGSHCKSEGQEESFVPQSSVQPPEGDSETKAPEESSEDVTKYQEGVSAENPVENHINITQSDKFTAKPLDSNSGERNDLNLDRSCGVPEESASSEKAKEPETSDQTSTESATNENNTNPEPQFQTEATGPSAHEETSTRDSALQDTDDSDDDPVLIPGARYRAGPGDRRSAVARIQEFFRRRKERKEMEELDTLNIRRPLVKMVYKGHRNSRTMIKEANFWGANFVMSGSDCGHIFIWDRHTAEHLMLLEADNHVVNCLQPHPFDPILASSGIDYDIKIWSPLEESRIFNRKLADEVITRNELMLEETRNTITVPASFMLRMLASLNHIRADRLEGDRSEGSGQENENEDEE
UniProt Q92466: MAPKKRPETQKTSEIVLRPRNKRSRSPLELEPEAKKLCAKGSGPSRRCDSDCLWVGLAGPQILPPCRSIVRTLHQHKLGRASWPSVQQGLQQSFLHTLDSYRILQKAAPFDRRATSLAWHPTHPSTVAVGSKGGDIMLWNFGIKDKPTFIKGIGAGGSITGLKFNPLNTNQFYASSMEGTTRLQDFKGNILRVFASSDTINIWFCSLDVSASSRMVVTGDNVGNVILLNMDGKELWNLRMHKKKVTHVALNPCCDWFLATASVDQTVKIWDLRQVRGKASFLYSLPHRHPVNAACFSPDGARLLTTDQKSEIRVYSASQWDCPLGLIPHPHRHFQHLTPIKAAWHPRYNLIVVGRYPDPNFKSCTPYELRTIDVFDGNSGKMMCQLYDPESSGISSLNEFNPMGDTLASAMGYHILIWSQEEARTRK
UniProt Q8TEB1: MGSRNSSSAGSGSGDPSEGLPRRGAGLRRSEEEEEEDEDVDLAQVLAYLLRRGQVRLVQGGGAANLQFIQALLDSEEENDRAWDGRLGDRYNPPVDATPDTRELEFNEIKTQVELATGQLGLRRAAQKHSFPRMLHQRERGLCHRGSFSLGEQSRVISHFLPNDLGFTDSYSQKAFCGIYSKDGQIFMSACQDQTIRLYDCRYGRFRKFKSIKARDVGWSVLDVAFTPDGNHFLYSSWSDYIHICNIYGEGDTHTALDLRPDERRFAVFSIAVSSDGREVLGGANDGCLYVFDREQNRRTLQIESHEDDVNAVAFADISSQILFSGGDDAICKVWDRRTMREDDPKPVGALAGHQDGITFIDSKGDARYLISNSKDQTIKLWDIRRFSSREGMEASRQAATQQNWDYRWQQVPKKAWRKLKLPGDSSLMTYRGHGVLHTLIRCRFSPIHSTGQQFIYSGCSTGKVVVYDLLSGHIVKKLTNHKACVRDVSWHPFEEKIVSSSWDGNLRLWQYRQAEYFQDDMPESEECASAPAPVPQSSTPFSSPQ
UniProt Q8NHY2: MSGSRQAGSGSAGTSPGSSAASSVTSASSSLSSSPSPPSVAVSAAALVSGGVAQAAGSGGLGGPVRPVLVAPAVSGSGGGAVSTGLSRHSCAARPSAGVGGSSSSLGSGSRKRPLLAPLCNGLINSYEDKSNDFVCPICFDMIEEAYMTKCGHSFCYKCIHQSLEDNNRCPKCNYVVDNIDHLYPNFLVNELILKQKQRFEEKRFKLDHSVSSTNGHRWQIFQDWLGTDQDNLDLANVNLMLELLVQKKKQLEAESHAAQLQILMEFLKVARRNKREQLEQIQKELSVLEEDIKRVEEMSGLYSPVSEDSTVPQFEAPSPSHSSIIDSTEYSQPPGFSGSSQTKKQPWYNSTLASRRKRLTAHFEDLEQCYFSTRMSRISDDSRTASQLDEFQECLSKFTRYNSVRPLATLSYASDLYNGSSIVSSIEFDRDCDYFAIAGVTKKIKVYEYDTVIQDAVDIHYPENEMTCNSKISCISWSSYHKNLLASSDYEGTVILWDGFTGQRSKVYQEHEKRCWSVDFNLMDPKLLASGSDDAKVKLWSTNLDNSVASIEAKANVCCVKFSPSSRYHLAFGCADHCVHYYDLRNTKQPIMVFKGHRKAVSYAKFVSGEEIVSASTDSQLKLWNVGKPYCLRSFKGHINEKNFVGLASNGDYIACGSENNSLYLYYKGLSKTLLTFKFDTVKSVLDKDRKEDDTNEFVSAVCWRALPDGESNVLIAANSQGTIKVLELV
UniProt P62879: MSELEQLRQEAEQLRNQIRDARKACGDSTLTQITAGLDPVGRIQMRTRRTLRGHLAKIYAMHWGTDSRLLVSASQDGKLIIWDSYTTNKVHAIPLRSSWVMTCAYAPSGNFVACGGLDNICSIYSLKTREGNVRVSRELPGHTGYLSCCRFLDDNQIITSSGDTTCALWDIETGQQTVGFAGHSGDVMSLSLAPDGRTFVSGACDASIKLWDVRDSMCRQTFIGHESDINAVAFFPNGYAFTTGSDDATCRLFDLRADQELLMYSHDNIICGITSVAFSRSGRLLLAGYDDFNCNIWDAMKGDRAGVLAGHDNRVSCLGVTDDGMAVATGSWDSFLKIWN
UniProt Q9NZJ0: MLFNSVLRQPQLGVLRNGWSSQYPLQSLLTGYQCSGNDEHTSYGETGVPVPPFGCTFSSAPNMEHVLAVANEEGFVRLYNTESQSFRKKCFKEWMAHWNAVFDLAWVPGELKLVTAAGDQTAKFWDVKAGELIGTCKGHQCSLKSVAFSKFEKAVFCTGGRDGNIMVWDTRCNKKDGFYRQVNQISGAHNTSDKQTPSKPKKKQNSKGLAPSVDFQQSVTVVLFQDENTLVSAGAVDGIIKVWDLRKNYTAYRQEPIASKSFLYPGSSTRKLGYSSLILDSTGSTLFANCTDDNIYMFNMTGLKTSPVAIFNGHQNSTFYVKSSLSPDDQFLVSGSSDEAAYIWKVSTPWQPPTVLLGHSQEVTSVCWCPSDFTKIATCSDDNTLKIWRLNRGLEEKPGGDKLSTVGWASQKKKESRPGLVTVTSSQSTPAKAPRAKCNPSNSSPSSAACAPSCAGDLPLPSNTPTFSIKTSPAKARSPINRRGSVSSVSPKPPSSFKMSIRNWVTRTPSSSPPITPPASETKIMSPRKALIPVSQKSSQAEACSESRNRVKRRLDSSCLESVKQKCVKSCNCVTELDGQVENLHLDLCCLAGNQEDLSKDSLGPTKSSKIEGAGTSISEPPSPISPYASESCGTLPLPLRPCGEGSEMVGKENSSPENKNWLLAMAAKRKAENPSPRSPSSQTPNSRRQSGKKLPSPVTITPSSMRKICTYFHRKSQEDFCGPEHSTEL
UniProt Q5TAQ9: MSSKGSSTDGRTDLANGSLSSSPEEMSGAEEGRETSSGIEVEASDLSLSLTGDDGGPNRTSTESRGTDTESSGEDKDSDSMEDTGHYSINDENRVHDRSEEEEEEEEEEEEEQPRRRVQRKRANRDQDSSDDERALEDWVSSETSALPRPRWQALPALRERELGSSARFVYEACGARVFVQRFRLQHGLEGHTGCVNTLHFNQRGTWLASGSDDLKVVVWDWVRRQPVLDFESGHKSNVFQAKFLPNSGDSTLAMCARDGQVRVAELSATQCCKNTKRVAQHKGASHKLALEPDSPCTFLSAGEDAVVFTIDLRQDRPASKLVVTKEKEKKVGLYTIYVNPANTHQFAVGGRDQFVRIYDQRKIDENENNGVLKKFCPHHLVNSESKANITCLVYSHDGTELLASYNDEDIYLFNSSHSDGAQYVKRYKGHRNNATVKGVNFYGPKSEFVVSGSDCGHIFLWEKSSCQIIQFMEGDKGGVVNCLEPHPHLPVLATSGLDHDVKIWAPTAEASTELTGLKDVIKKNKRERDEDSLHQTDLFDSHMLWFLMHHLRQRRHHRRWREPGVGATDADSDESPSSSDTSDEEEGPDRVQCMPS
UniProt Q9BQ67: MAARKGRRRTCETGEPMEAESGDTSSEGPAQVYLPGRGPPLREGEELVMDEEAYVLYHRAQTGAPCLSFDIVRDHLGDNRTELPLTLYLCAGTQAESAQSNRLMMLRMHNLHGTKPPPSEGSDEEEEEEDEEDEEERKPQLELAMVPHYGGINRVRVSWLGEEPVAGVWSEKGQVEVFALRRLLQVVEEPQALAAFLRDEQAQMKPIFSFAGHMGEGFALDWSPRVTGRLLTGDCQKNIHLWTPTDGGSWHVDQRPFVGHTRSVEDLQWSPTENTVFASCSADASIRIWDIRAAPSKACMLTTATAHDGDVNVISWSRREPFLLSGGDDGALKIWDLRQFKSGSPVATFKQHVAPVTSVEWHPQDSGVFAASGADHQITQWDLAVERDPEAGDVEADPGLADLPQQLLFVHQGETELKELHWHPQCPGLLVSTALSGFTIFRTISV

Experiments:
[1] = biological target: myc-BirA∗-DDB1 (human (cDNA from HeLa and HEK293 cells)) (UniProt Q16531); test: proximity labelling; BioID with myc-BirA∗-DDB1 as bait in U2OS Flp-In T-Rex cells; doxycycline, 50 μM biotin 24 h; denaturing lysis, streptavidin beads, LC-MS/MS; SILAC: bait cells heavy (R10K8), myc-BirA∗ control cells light (R0K0); enriched = H/L ratio over 2; N = 3
[2] = biological target: GFP-DDB1 (human (cDNA from HeLa and HEK293 cells)) (UniProt Q16531); test: affinity purification with mass spectrometry; GFP-DDB1 from U2OS Flp-In T-Rex lysate (50 mM Tris pH 7.4, NaCl, 1% Triton X-100, nuclease) on GFP-trap agarose beads, 3 h at 4 °C; SILAC: bait cells heavy (R10K8), GFP control cells light (R0K0); enriched = H/L ratio over 2; N = 3
[3] = biological target: myc-BirA∗-DCAF6 (human (cDNA from HeLa and HEK293 cells)) (UniProt Q58WW2); test: proximity labelling; BioID with each of 58 myc-BirA∗-DCAFs as bait in stable U2OS Flp-In T-Rex cells; doxycycline, 50 μM biotin 24 h; streptavidin beads, LC-MS/MS; interactor = SAINT score over 0.7 against myc-BirA∗ control; N = 2
[4] = biological target: T1, myc-BirA∗-WDTC1 (human (cDNA from HeLa and HEK293 cells)) (UniProt Q8N5D0); test: as above
T1 sequence: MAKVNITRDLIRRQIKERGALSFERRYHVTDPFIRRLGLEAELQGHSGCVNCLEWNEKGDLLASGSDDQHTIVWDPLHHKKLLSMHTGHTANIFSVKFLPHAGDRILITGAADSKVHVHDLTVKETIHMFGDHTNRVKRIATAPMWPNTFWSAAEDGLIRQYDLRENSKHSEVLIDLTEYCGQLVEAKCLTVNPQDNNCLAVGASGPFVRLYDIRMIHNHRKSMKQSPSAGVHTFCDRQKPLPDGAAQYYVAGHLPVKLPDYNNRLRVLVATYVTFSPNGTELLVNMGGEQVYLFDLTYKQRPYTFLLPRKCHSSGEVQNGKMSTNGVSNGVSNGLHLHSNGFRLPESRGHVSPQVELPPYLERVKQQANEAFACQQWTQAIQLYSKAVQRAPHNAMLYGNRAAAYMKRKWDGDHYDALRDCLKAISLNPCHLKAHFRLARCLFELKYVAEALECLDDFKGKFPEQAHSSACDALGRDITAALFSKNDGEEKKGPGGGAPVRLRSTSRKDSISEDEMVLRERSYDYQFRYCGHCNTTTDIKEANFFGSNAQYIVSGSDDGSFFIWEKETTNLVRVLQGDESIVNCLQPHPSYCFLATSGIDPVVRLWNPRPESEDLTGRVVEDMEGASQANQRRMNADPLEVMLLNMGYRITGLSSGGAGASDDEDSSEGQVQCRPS

[5] = biological target: T2, myc-BirA∗-TRPC4AP (human (cDNA from HeLa and HEK293 cells)) (UniProt Q8TEL6); test: as above
T2 sequence: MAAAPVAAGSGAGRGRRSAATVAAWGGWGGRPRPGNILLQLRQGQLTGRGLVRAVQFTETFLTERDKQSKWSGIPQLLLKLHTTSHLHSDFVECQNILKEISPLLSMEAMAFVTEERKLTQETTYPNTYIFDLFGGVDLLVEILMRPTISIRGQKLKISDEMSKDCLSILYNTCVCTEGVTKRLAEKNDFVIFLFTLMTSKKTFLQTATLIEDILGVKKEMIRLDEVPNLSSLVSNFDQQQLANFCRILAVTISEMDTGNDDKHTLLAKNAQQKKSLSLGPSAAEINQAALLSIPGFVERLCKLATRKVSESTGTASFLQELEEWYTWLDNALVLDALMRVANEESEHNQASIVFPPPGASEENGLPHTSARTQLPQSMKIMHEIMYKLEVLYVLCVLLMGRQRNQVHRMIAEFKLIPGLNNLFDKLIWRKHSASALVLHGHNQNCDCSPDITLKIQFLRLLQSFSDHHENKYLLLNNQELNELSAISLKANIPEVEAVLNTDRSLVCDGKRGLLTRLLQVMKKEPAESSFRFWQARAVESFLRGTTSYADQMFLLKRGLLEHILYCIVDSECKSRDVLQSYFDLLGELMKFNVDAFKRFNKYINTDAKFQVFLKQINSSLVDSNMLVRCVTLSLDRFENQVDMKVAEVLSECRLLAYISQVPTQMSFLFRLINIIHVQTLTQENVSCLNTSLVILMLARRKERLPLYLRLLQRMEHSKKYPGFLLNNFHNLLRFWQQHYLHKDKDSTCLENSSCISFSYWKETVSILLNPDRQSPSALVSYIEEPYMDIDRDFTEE

[6] = biological target: myc-BirA∗-DDB2 (human (cDNA from HeLa and HEK293 cells)) (UniProt Q92466); test: as above
[7] = biological target: myc-BirA∗-DCAF11 (human (cDNA from HeLa and HEK293 cells)) (UniProt Q8TEB1); test: as above
[8] = biological target: myc-BirA∗-RFWD2 (human (cDNA from HeLa and HEK293 cells)) (UniProt Q8NHY2); test: as above
[9] = biological target: myc-BirA∗-GNB2 (human (cDNA from HeLa and HEK293 cells)) (UniProt P62879); test: as above
[10] = biological target: T3, myc-BirA∗-DCAF4 (human (cDNA from HeLa and HEK293 cells)) (UniProt Q8WV16); test: as above
T3 sequence: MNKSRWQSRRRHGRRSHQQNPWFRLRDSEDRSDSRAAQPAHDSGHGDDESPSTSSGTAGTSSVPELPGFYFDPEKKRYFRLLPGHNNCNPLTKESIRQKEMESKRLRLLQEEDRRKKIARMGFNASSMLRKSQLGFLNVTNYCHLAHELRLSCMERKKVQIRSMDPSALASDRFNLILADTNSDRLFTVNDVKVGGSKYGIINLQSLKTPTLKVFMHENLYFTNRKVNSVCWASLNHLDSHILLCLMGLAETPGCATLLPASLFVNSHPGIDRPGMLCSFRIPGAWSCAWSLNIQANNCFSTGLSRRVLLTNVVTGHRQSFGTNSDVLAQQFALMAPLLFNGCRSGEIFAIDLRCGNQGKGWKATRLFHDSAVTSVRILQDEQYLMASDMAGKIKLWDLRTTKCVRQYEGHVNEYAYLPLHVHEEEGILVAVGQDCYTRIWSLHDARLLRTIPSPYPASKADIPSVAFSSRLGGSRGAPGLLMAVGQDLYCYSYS

Substance | binding [1] | binding [2] | other results
PHIP (from UniProt Q8WWQ0 1-1821) | binds | – | –
DTL (from UniProt Q9NZJ0 1-730) | binds | – | –
DCAF6 (from UniProt Q58WW2 1-860) | binds | binds | –
DCAF8 (from UniProt Q5TAQ9 1-597) | – | binds | –
GRWD1 (from UniProt Q9BQ67 1-446) | – | binds | –
DDB2 (from UniProt Q92466 1-427) | binds | binds | –
DDB1 (from UniProt Q16531 1-1140) | – | – | binding [3]: binds; binding [4]: binds; binding [5]: binds; binding [6]: binds; binding [7]: binds; binding [8]: binds; binding [9]: binds; binding [10]: binds

No constants are given. Whether binding was seen depends on the method and setting. In cells and extracts the contact can be indirect. These calls come from enrichment with a bait or labelling near it, and not all partners need be listed. For some of these results: Tags and fused reporters may be left off the sequences shown.
